In patent CN113480646A:
No constants are given. Whether binding was seen depends on the method and setting. Some binding calls cover weakened binding; strength is not graded here.

Molecular target: 内源过表达的H1.4移码突变蛋白(H1.4 K157E fs*), Flag fusion expressed from pFLAG-CMV-H1.4 K157E fs* in NIH 3T3 cells
Assay: Western blot, 50 ug lysate of transfected NIH 3T3 cells

binding: binds
B1: 特异性结合H1.4移码突变蛋白的单克隆抗体 (hybridoma cell line A1) (antibody, mouse IgG1, kappa, V domains shown)
VH: QIQLVQSGPELKKPGETVKISCKASGYTFTDYSMQWMKQAPGKGLKWMGWIDTGTGEPSYADDFKGRFAFSLETSASTAYLQINNLKNEDTATYFCARRSYGYFAFWGQGTLVAVSA
VL: DVVMTQTPLSLPVSLGDQASISCRSSQNIVHVNGNTYLEWYLQKPGQSPKLLIYKVSNRFSGVPDRFSGSGSGTEFTLKISRVEAEDLGVYYCFQGSHVPFTFGAGTKLELKR
